# Measured values published in article PMC7819943, “Rice protein-binding microarrays: a tool to detect cis-acting elements near promoter regions in rice”.
# By UniProt entry, the sequences of proteins in these tests, tags left out.
# UniProt Q0JBA9, entry or part of it: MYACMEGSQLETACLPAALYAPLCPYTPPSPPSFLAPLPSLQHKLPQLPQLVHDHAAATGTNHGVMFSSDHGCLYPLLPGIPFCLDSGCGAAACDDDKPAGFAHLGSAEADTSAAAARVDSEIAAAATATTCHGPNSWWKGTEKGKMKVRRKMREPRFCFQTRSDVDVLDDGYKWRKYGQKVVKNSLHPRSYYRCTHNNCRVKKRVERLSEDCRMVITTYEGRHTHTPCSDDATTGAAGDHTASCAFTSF
# The other results are listed elsewhere or left out.
# Molecular target: OsWRKY34 (Oryza sativa, UniProt Q0JBA9 1-250)
# Assay: protein-binding microarray (RPBM); PBS, 2% BSA, 51.3 ng/ul salmon testes DNA, 50 uM zinc acetate, 200 nM TF, 25 C, 1 h; high values mean tight binding
# Details: protein: recombinant; tags: N-terminal polyhistidine and DsRed monomer fusion (pET32a); label: CyDye5-dUTP incorporated in the synthesized complementary strand; 3' TTTTT single-stranded linker to array surface; dsDNA, one strand shown
# Method in brief: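 For the binding signal, per-feature fluorescence intensity was read in arbitrary units on an Axon 4000B scanner. Before scanning, a 2% BSA-blocked custom Agilent array made double-stranded with Cy5-dUTP was washed after 1 h at 25 °C with 200 nM protein and 50 µM zinc acetate. The proteins were Ni–NTA-purified transcription factors with N-terminal polyhistidine and DsRed fusions, expressed in E. coli BL21-CodonPlus.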
row,Sequence,binding signal
1,CACGAGAATCTGACCTGTTAACTCATATCTACTAATATCTCGGAGTCACCTAGTGCAG,9630 fluorescence intensity (a.u.)
2,TTGCCATCGACATTATCTCTTTCTATAATATACCAGCGACCGGAGTCACCTAGTGCAG,8420 fluorescence intensity (a.u.)
3,GCTGCTCGACTACGTCTTCCTGCTCGTGGGTCTTTTCTTCCGGAGTCACCTAGTGCAG,14000 fluorescence intensity (a.u.)
4,ACCTTTTTTTTTCGCCCGCAAATTTCATTAACACCACTTCCGGAGTCACCTAGTGCAG,8390 fluorescence intensity (a.u.)
5,TATATAGACTTGATATACCCTGTCTTTGCCCTTTTATTTCCGGAGTCACCTAGTGCAG,8150 fluorescence intensity (a.u.)
6,CTAGCTAGCTAGCTAGCTTTTGCTCCTACATCTTCACTTCCGGAGTCACCTAGTGCAG,8580 fluorescence intensity (a.u.)
7,CTTTTTTGGGTGATTTTTTTTCACTTGGGGTGGGTGATAACGGAGTCACCTAGTGCAG,21800 fluorescence intensity (a.u.)
8,TCTCTGACATGTTCTATCCATACCACTCAGGCACCTTCCTCGGAGTCACCTAGTGCAG,8240 fluorescence intensity (a.u.)
9,ACACCGTTGACTTTTTAGTACGTATTTGACCATTCGTCTTCGGAGTCACCTAGTGCAG,36700 fluorescence intensity (a.u.)
10,GGTGCTGGTGGTGGCCGCCCTGACGGTCCAGACTTTGCTACGGAGTCACCTAGTGCAG,8610 fluorescence intensity (a.u.)
11,GAGCTGCAACCACATGCTATCTGGCACTGCATCCTGAACTCGGAGTCACCTAGTGCAG,8390 fluorescence intensity (a.u.)
12,AGTTGGCTATAATATATTTCTTCTCTCTCTATCTCTCATTCGGAGTCACCTAGTGCAG,17700 fluorescence intensity (a.u.)
13,AGTTGCTTACTGTATTATTAATATCTAGTCCTACCTATCACGGAGTCACCTAGTGCAG,8260 fluorescence intensity (a.u.)
14,GCTATACTTGATGACCTACAGGCCTTGTAGTCTACCTGACCGGAGTCACCTAGTGCAG,9340 fluorescence intensity (a.u.)
15,CGTTAGCCCACGCATGGCCTCGTGTCACCGTCGCTTCGAGCGGAGTCACCTAGTGCAG,8770 fluorescence intensity (a.u.)
16,TATTTTTGACTTTGGTCAAAGTCAAACTGTTTTAAGTTTGCGGAGTCACCTAGTGCAG,17900 fluorescence intensity (a.u.)
17,TTCTTCTGCTCATGGGTACGCATTTTCTATCGCAGACACTCGGAGTCACCTAGTGCAG,10600 fluorescence intensity (a.u.)
18,AGCCCGTTTCCTCTGCTTTTGATTATTTTTCCTAAGTTTTCGGAGTCACCTAGTGCAG,12300 fluorescence intensity (a.u.)
19,GTTGCTGGTTTTGTTAGTTTGGTGACCTTGACTTGTAAGACGGAGTCACCTAGTGCAG,8670 fluorescence intensity (a.u.)
20,GGTCATTCATGTATTTTTCTTGCGTTTTGCAATCCTCTGTCGGAGTCACCTAGTGCAG,11200 fluorescence intensity (a.u.)
21,CATACCTTTCTATGCAACCAATTGCCAAATATCAATTTTCCGGAGTCACCTAGTGCAG,8470 fluorescence intensity (a.u.)

row,Sequence,binding signal
1,ATTTGCCCAACCATTGCTTTTATGTAAAACAAGCTGTTCTCGGAGTCACCTAGTGCAG,9600 fluorescence intensity (a.u.)
2,AGCTTTTGGTCTCATACTCTCATGTTCTTCGTCCCTCTGTCGGAGTCACCTAGTGCAG,10700 fluorescence intensity (a.u.)
3,TCTCTTCTCTCGCGCTCCCAACGACGCCGCCGCGGCGCCGCGGAGTCACCTAGTGCAG,8670 fluorescence intensity (a.u.)
4,CCTACCTGTAACCAGACCTTGACGCCGACACTCACGTGACCGGAGTCACCTAGTGCAG,8710 fluorescence intensity (a.u.)
5,GTTCCATTCCCCACCACCACCATCGCCAAAACCCTAGCTTCGGAGTCACCTAGTGCAG,8050 fluorescence intensity (a.u.)
6,GCGGCTCGGTAAGTTGGACTCAATTCCTCGTCTTCCAATCCGGAGTCACCTAGTGCAG,10100 fluorescence intensity (a.u.)
7,CTTTCTTTCTCGTCGTCACCCAGTTGCCGCTGATGCAATTCGGAGTCACCTAGTGCAG,8370 fluorescence intensity (a.u.)
8,CAAATTGCGTGAATATTGCCCGTCTCGCTGCAGAATGATCCGGAGTCACCTAGTGCAG,8970 fluorescence intensity (a.u.)
9,CGCCGATCTGTGGGGTGGGATGGTGGATCGATCCAGATCCCGGAGTCACCTAGTGCAG,8600 fluorescence intensity (a.u.)
10,AGAAGGATCTCTCATGGTGGGCTGGGCTTCTCTTAGCTGGCGGAGTCACCTAGTGCAG,9170 fluorescence intensity (a.u.)
11,GTGGGATATGGACTATGCGAGAGAGAGAGAGAGAGAGAGACGGAGTCACCTAGTGCAG,10300 fluorescence intensity (a.u.)
12,AATTATTTTCATTTGCTAAGTTACTATTTCGCATTTTTTTCGGAGTCACCTAGTGCAG,8650 fluorescence intensity (a.u.)
13,CACATGTGCTGTTATGAAATTAGTTTGTTCATTCGTGTTACGGAGTCACCTAGTGCAG,8970 fluorescence intensity (a.u.)
14,GCGGCGGGGTGGTGGAACCTTGCGTCTCGCGGCGGAGGGACGGAGTCACCTAGTGCAG,9670 fluorescence intensity (a.u.)
15,TATTTGATTTTTGTGATTTTGGTCATCTATCATTTCTTCCCGGAGTCACCTAGTGCAG,9010 fluorescence intensity (a.u.)
16,AATTTTTTTCCTCTCCTGTTTTGTGCCCTTGATATTATGTCGGAGTCACCTAGTGCAG,13400 fluorescence intensity (a.u.)
17,GACGACATAGGGGACATCTTCCGGAGCGTGGGGTGGGAGGCGGAGTCACCTAGTGCAG,10100 fluorescence intensity (a.u.)
18,CATTCTCCAACAAAGAGATCGTGGGTGGGTTTTCTTCTCCCGGAGTCACCTAGTGCAG,13100 fluorescence intensity (a.u.)
19,TGTTTTTTCTAACAATATGCACATCCACGGTTCTGTTTCTCGGAGTCACCTAGTGCAG,10600 fluorescence intensity (a.u.)
20,TTCCATGTGTCCCAGTTAAAGCAATTTGTTCCTGACAACACGGAGTCACCTAGTGCAG,8380 fluorescence intensity (a.u.)
21,CACCCCGCAGATCCACCAAACCACACACGGCCGTCGCTGACGGAGTCACCTAGTGCAG,8120 fluorescence intensity (a.u.)

row,Sequence,binding signal
1,CGTGATCCAGCTCTTGTTTCTCCTTTCTTTCAGTTGCATGCGGAGTCACCTAGTGCAG,9330 fluorescence intensity (a.u.)
2,TGCCTTTTCATTCTTCCCTCCTACCTCGTTGGCCACTACACGGAGTCACCTAGTGCAG,8390 fluorescence intensity (a.u.)
3,CGTGTTTTTCCTTATCACGTACTCCCACCTATTTGTATAACGGAGTCACCTAGTGCAG,8920 fluorescence intensity (a.u.)
4,GTGTTTTAAGTGCTCTCTTTGTTCTCAAGTGTGCATTTTTCGGAGTCACCTAGTGCAG,9180 ± 145 fluorescence intensity (a.u.)
5,CAACTTAGCATATTGAAATTTCTACTGTCATGCTTCCTTGCGGAGTCACCTAGTGCAG,8230 fluorescence intensity (a.u.)
6,GACCAGGCCCTCGCTCCGTCACACTCGCCTGCCTCCGTTCCGGAGTCACCTAGTGCAG,8540 fluorescence intensity (a.u.)
7,AGATTAGTTTCTATTTTAAGTTAGTTGCTCTTTCTGTTCCCGGAGTCACCTAGTGCAG,10200 fluorescence intensity (a.u.)
8,ATGACGCCCAATAATTCAACCGAAGAACAACCACACCTATCGGAGTCACCTAGTGCAG,9180 fluorescence intensity (a.u.)
9,TAATCGCGCGGGGAGGGTGCACGCGACTAATCGCCCATTACGGAGTCACCTAGTGCAG,8340 fluorescence intensity (a.u.)
10,CCATGGGGATGGTGGTGCAGGTGCTCGAGGGGCTCGTCGACGGAGTCACCTAGTGCAG,8030 fluorescence intensity (a.u.)
11,CACCACCACCCGCACCGTCCGCACACTCGTCCGCTTCCGTCGGAGTCACCTAGTGCAG,11000 fluorescence intensity (a.u.)
12,GTCTACGTTTAATACTTCAATGTGTGACCGTGTATCCGATCGGAGTCACCTAGTGCAG,8490 fluorescence intensity (a.u.)
13,AGTTCACCCTCCCACAACGTTGTAACTTCTTTAAAGCAAACGGAGTCACCTAGTGCAG,8500 fluorescence intensity (a.u.)
14,CGGCCTTTTTTTAAGCTTATCTCTATCACTCGCTCTTCCGCGGAGTCACCTAGTGCAG,12600 fluorescence intensity (a.u.)
15,CACGTAAAATTTGTATCTCCATTATGCATCTTTTTAATTTCGGAGTCACCTAGTGCAG,13800 fluorescence intensity (a.u.)
16,CTTACCTCATCACCGTCGTCGCGATCCTCAAATCTCTTTCCGGAGTCACCTAGTGCAG,8410 fluorescence intensity (a.u.)
17,CTTTGCTTTCTCAGCTTCTGTCCTTGTTTTGACTTTATGTCGGAGTCACCTAGTGCAG,9520 fluorescence intensity (a.u.)
18,CCTTGTCTGTACTCTCTCTACTTTCCACCTCTATCCGCCTCGGAGTCACCTAGTGCAG,9420 fluorescence intensity (a.u.)
19,GTGAAAAATTTTAGGGTGGGATCTAAACAGGGCCTAGGAACGGAGTCACCTAGTGCAG,8990 fluorescence intensity (a.u.)
20,CGTAGCTCCAAGCCTCCAATCCTCGCATATTGTCACGGCCCGGAGTCACCTAGTGCAG,9320 fluorescence intensity (a.u.)
21,GCTCACACATTACTCATAATATTGTTTCATTTTCTAACACCGGAGTCACCTAGTGCAG,10300 fluorescence intensity (a.u.)

# A different layout for part of the listing above:
row	Sequence	binding signal
14	CGGCCTTTTTTTAAGCTTATCTCTATCACTCGCTCTTCCGCGGAGTCACCTAGTGCAG	12600 fluorescence intensity (a.u.)
15	CACGTAAAATTTGTATCTCCATTATGCATCTTTTTAATTTCGGAGTCACCTAGTGCAG	13800 fluorescence intensity (a.u.)
16	CTTACCTCATCACCGTCGTCGCGATCCTCAAATCTCTTTCCGGAGTCACCTAGTGCAG	8410 fluorescence intensity (a.u.)
17	CTTTGCTTTCTCAGCTTCTGTCCTTGTTTTGACTTTATGTCGGAGTCACCTAGTGCAG	9520 fluorescence intensity (a.u.)
18	CCTTGTCTGTACTCTCTCTACTTTCCACCTCTATCCGCCTCGGAGTCACCTAGTGCAG	9420 fluorescence intensity (a.u.)

# The results go on.

row,Sequence,binding signal
1,TGCCCCATCGCCGCCGCTGCCGCCCATCTTCTCCACTGCTCGGAGTCACCTAGTGCAG,8970 fluorescence intensity (a.u.)
2,CCATTGCACACACCTCACTTGCTCTTCTCTCTCTCTCTATCGGAGTCACCTAGTGCAG,13800 fluorescence intensity (a.u.)
3,TCCATTGCCGCTGGTCGCACCGTCCTCGACTTCCGCGTCCCGGAGTCACCTAGTGCAG,8460 fluorescence intensity (a.u.)
4,CGTCTCTAAATACTTGACGCCGTTGACTTTTTTAAATATGCGGAGTCACCTAGTGCAG,26900 fluorescence intensity (a.u.)
5,TTCTTCCTCGCCGCCGCCGCCGTCGTCCCACCGGCGCCGCCGGAGTCACCTAGTGCAG,10000 fluorescence intensity (a.u.)
6,AGAGCCGCTTGTTGCTCCGTGCTATTTTTTCGTTTCTGGACGGAGTCACCTAGTGCAG,9630 fluorescence intensity (a.u.)
7,TCGTCTCGTCTCGTCTCCCTCGCGAGAGCTTCCCACCATTCGGAGTCACCTAGTGCAG,9290 fluorescence intensity (a.u.)
8,ACCACTCTGCACTTCCGCTAGTCCCACTCCCACCACGGCGCGGAGTCACCTAGTGCAG,9220 fluorescence intensity (a.u.)
9,CGCTTTGCCTTTTGCTGCCCGCTGCCTGCTTTGCCCACGACGGAGTCACCTAGTGCAG,10500 fluorescence intensity (a.u.)
10,AATGTGTGTGTTGTACCCAATTTATTTAGCCAAAATGAAACGGAGTCACCTAGTGCAG,9000 fluorescence intensity (a.u.)
11,GAAAAAAAAATGCGTTGACCGAGGGAAGACGAGATCAGTGCGGAGTCACCTAGTGCAG,10400 fluorescence intensity (a.u.)
12,GTTTTGCTATGTGGATTGATCGTTTGCTGTGTTCGTTGGACGGAGTCACCTAGTGCAG,10700 fluorescence intensity (a.u.)
13,GCTTCTTTAATCGTTGTTGATGTTAAATTCTAATTTACCACGGAGTCACCTAGTGCAG,9630 fluorescence intensity (a.u.)
14,CATTCGCTTTTCCCACCTAACTCTACTACTCATCCAATCACGGAGTCACCTAGTGCAG,8380 fluorescence intensity (a.u.)
15,CATCTGTCCCATCTTGTTTTTAATCCTGTGTCCGTCATTGCGGAGTCACCTAGTGCAG,8920 fluorescence intensity (a.u.)
16,CACATTCCGTCCTGCTACCGTCACGTCTCCATAAAGCCATCGGAGTCACCTAGTGCAG,9770 fluorescence intensity (a.u.)
17,CACACACATGGTTCCTCCTTCCCTTTGACTCCACCATGCTCGGAGTCACCTAGTGCAG,8150 fluorescence intensity (a.u.)
18,CTGATTACCTCTTGTCTAAACTAACGTCCTCAAGTGGAATCGGAGTCACCTAGTGCAG,8140 fluorescence intensity (a.u.)
19,ACGTGGGGTGATTCTACGACCCGCCTCGTCCGCTTACTTACGGAGTCACCTAGTGCAG,8400 fluorescence intensity (a.u.)
20,GTATTATATTATTAATTAATCGCCGTCACCTCGTCGCCATCGGAGTCACCTAGTGCAG,8090 fluorescence intensity (a.u.)
21,GTTTCTAGCTTTAACTTTTTGTTGGCTGCCTTTTGTTGTTCGGAGTCACCTAGTGCAG,11700 fluorescence intensity (a.u.)

# Two records drawn at random from those above, as already listed:
row,Sequence,binding signal
12,GTTTTGCTATGTGGATTGATCGTTTGCTGTGTTCGTTGGACGGAGTCACCTAGTGCAG,10700 fluorescence intensity (a.u.)
4,CGTCTCTAAATACTTGACGCCGTTGACTTTTTTAAATATGCGGAGTCACCTAGTGCAG,26900 fluorescence intensity (a.u.)
